Assay results from PubChem BioAssay AID504444 (National Center for Advancing Translational Sciences (NCATS), 2011).
The whole screen tested about 360,000 compounds, of which about 7,500 (2.1%) were called active. The inconclusive results got no clear call from the source; some entries with a clear call stand among them for comparison. Calls follow the shape of the dose curve; as a rule, active = well fitted inhibition curve with a large enough effect; inconclusive = small, poorly fitted or top-dose-only effect, or effect the other way; inactive = flat fitted curve, though single readings scatter. Potencies of inconclusive entries are doubtful fits and often do not repeat.

assay: Nrf2 qHTS screen for inhibitors; details: A549 ARE-Fluc reporter, luciferase luminescence, 18-24 h; activity change, negative = inhibition: at 46 µM (top of the series); also: nearly all actives have a fitted effect of over 60% in size
Summary of the method: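 Two sequential reads on A549 ARE_Fluc cells exposed to compound for 18-24 h: a CellTiter-Fluor fluorescence read for viability, then a luciferase luminescence read for Nrf2/ARE activity.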
% is scaled to controls: 0 for no effect and ±100 for the full control effect; potency is read from the fitted curve at half-maximal effect.

SMILES | Potency | activity change, negative = inhibition
CS(=O)(=O)c1ccc(Cl)c(NC(=O)C2CCN(S(=O)(=O)c3cccs3)CC2)c1 | inactive | –
O=C(Nc1ccc(N2CCOCC2)cc1)c1cccc2ccccc12 | inconclusive: 29.1 µM [activator, single point] | –
CC(C)(C)OC(=O)CNC(=O)c1[nH]cnc1C(=O)Nc1ccc(CNC(=O)OC(C)(C)C)cc1 | inconclusive: 25.9 µM [falling, single point] | –
CCc1ccc(-n2nc(C)c3c(C)cc(=O)n(Cc4nc(-c5ccccc5)oc4C)c32)cc1 | inconclusive: 29.1 µM [falling, single point] | –
O=C(Nc1ccc(N2CCOCC2)c([N+](=O)[O-])c1)c1ccco1 | inconclusive: 10.3 µM [activator, partial curve, poor fit] | –
COc1ccc(-c2ccccc2)c2oc(-c3ccco3)cc(=O)c12 | inactive | –
O=C(NC1CCCCC1)C(c1ccncc1)N(C(=O)c1ccco1)c1ccc(F)cc1 (configuration not stated) | inactive | –
C=CCNc1ncnc2ccccc12 | inactive | –
O=C(NCc1ccccc1)N1CCC(n2cnc3cc(F)ccc32)CC1 | inconclusive: 20.6 µM [falling, partial curve, poor fit] | –
C#CCOCCOCCOCCNc1nc(N2CCN(C(=O)CCCCCCCCCCNC(=O)[C@H](CCCCN)n3cc(C)nn3)CC2)nc(N2CCN(C(=O)CCCCCCCCCCNC(=O)[C@H](CO)n3cc(CCCSC)nn3)CC2)n1 | inconclusive: 29.1 µM [falling, single point] | –
CCOC(=O)c1c(-c2ccccc2)oc2ccc(NS(=O)(=O)c3cc(C)c(C)cc3C)cc12 | inactive | –
CCOc1ccccc1CN1CCN(S(=O)(=O)c2ccccc2)CC1 | inconclusive: 1.64 µM [activator, partial curve, poor fit] | –
O=C1CC(c2ccccc2)Sc2nc3ccccc3n21 (configuration not stated) | inconclusive: 23.1 µM [activator, partial curve] | –
Cc1ccccc1NC(=O)c1ccc2c(c1)c(C)c(C)n2Cc1ccccc1 | inconclusive: 29.1 µM [falling, single point] | –
COCc1nc2ccccc2n1CCOc1cccc(C)c1 | – | inactive: -12.2% [at 9.27 µM]
CC(NC(=O)Cc1cccs1)C(c1cccs1)N1CCN(c2ccccc2F)CC1 (configuration not stated) | inconclusive: 32.6 µM [falling, single point] | –
Cc1cccc(CN2CCC(CNC(=O)Nc3ccc(F)c(Cl)c3)CC2)c1 | inconclusive: 25.9 µM [falling, single point] | –
O=C(CSc1n[nH]c(=O)n1C1CC1)N1N=C(c2ccc(Cl)cc2)CC1c1ccco1 (configuration not stated) | inconclusive: 23.1 µM [falling, partial curve, poor fit] | –
CC(C)(C)NC(=S)Nc1cccc(C(F)(F)F)c1 | inconclusive: 23.1 µM [falling, single point] | –
COc1ccc(C(NC(=O)C(C)C)c2c(O)ccc3ccccc23)cc1OC (configuration not stated) | inactive | –
COc1ccc2nc(NC(=O)CCNC(=O)c3ccco3)sc2c1 | inconclusive: 23.1 µM [activator, partial curve, poor fit] | –
CC(=O)N1CCc2c(sc(NC(=O)CSc3ccccc3)c2-c2nc3ccccc3s2)C1 | inconclusive: 29.1 µM [falling, single point] | –
Cc1cc(NC(=O)CSc2nc(-c3ccco3)cc(C(F)(F)F)n2)n(-c2ccccc2)n1 | inconclusive: 6.51 µM [falling, full curve, poor fit] | –

SMILES | Potency | activity change, negative = inhibition
O=C(CSc1nnc(NC2CCCCC2)s1)N1CCOCC1 | inconclusive: 32.6 µM [activator, partial curve, poor fit] | –
COC(=O)CC1(c2ccc(OC)cc2)C(=O)c2ccccc2C1=O | inconclusive: 25.9 µM [activator, single point] | –
COc1ccc2c(c1)OC[C@H]1[C@H]2N2C(=O)CN(Cc3ccc(F)cc3)C(=O)[C@@]2(C)[C@H]1c1ccccc1 | inconclusive: 23.1 µM [falling, single point] | –
CCOc1ccc(-n2cc(-c3ccccc3)c3c(N4CCOCC4)ncnc32)cc1 | inconclusive: 16.4 µM [falling, single point] | –
CCCNC(=O)C1CC(=O)N(c2ccc(OCc3ccc(Cl)cc3)cc2)C1 (configuration not stated) | inconclusive: 0.0461 µM [activator, full curve, poor fit] | –
COc1ccc(S(=O)(=O)N2CCC(C(=O)NC3CC3)CC2)cc1 | inconclusive: 3.66 µM [falling, full curve] | –
CC(C)(C)c1ccc(OCc2ccc(C(=O)NN)o2)cc1 | inconclusive: 2.59 µM [activator, full curve, poor fit] | –
Cc1ccc(N2CCN(/N=C/c3sccc3C)CC2)cc1 | inconclusive: 14.6 µM [falling, partial curve] | –
COc1ccc([N+](=O)[O-])cc1N(CC(=O)N1CCN(Cc2ccccc2)CC1)S(C)(=O)=O | inactive | –
O=C(N/N=C/c1cn(-c2cccs2)nc1-c1ccccc1)c1ccccc1O | inconclusive: 29.1 µM [falling, single point] | –
Nc1c(C(=O)NCc2ccccc2)c2nc3ccccc3nc2n1-c1ccc2c(c1)OCO2 | inconclusive: 13 µM [falling, partial curve, poor fit] | –
CCCCCCCNC(=O)C1(CC2CC(c3cccc(Br)c3)=NO2)CCN(C(=O)C2(C)CC2)CC1 (configuration not stated) | inconclusive: 29.1 µM [falling, single point] | –
O=C(CN1CCN(c2ccc(O)cc2)CC1)Nc1ccc2c(c1)OCCCO2 | inconclusive: 20.6 µM [falling, single point] | –
CCCCCCn1c(NCC)nc2c1c(=O)n(C)c(=O)n2C | active: 3.66 µM | –
O=C(O)Cn1nc2c3c(cccc3c1=O)-c1ccccc1-2 | inactive | –
O=CN1CCN(C(=O)c2ccc([N+](=O)[O-])cc2)CC1 | inactive | –
Cc1cccc(NC(=S)N/N=C2\CC(C)(C)Oc3ccc(O)cc32)c1 | inconclusive: 8.2 µM [activator, partial curve] | –
CC1(C)CC(CC(=O)O)(c2ccc(F)cc2)CCO1 (configuration not stated) | inconclusive: 29.1 µM [falling, single point] | –
Cc1ccc(C(=O)CSc2nc(-c3ccccc3)nc3c2CCCC3)cc1 | inactive | –
CCOc1ccccc1NC(=O)N1CC(CC)Oc2ccccc21 (configuration not stated) | inactive | –
CCC(C)NC(=O)C1CCC(CNS(=O)(=O)c2ccc3c(c2)N(C(C)=O)CCO3)CC1 (configuration not stated) | inactive | –
CN(C)CCNC(=O)c1ccc(Cl)c2cc3ccccc3nc12 | active: 18.4 µM | –
COc1cc2ccccc2cc1C(=O)Nc1ccc(N2CCN(C(=O)C(C)C)CC2)cc1 | inconclusive: 14.6 µM [falling, partial curve, poor fit] | –

SMILES | Potency | activity change, negative = inhibition
N#CCCCC#Cc1ccc2c(c1)COc1c3ccccc3nn1-2 | inconclusive: 0.58 µM [activator, full curve] | –
CSc1ccccc1NC(=O)c1ccc(CN2CCOCC2)cc1 | inconclusive: 13 µM [activator, partial curve, poor fit] | –
c1ccc(CN2CCC(CNc3ncnc4ccccc34)C2)cc1 (configuration not stated) | active: 20.6 µM | –
O=C1[C@H](Cc2ccccc2)NCCCC[C@H](c2ccc(Cl)cc2)N1Cc1ccccc1 | inconclusive: 23.1 µM [falling, single point] | –
CCOc1ccc(N2CC(C(=O)NCc3ccco3)CC2=O)cc1 (configuration not stated) | inconclusive: 29.1 µM [falling, single point] | –
CCc1c(C)c2ccc(O)c(CN3CCCC3)c2oc1=O | inactive | –
N#C/C(=C\C1CC=CCC1)c1nc2ccccc2[nH]1 (configuration not stated) | inconclusive: 6.51 µM [falling, partial curve] | –
Cc1nn(CCC(=O)Nc2cc(F)ccc2F)c(=O)c2nn(-c3ccccc3)c(C)c12 | inactive | –
O/N=C/c1ccccc1OCc1ccc(Cl)cc1 | inconclusive: 23.1 µM [activator, partial curve, poor fit] | –
Cc1ccc(C(=O)/C=C/c2ccccc2[N+](=O)[O-])cc1 | inconclusive: 29.1 µM [activator, single point] | –
CCC1CCc2sc(C(=O)N(C)CC(=O)Nc3ccc(N4CCOCC4)cc3)cc2C1 (configuration not stated) | inconclusive: 29.1 µM [falling, single point] | –
Cc1ccc(C(=O)N2CCN(c3ccc(F)cc3)CC2)cc1S(=O)(=O)N1CCCCC1 | active: 11.6 µM | –
Cc1oc2cc3oc(=O)c(CCC(=O)N4C[C@H]5C[C@@H](C4)c4cccc(=O)n4C5)c(C)c3cc2c1C | inconclusive: 16.4 µM [falling, partial curve] | –
c1ccc(CCCCc2ccccn2)cc1 | inconclusive: 29.1 µM [activator, single point] | –
COc1ccc(-c2cn(-c3ccc(C)cc3)c(S(=O)(=O)CC(=O)Nc3ccc(F)cc3)n2)cc1 | inconclusive: 0.259 µM [falling, full curve, poor fit] | –
COc1ccc(CCc2nc(-c3ccc(-n4cccc4)cc3)no2)cc1 | active: 16.4 µM | –
O=C(N/N=C/c1cn(CC(=O)N2CCOCC2)c2ccccc12)c1cccnc1 | inconclusive: 29.1 µM [activator, single point] | –
C=CCNC(=S)Nc1ccc2nsnc2c1 | inactive | –
Cc1ccc2c(CN3CCN(S(=O)(=O)c4ccccc4C(F)(F)F)CC3)cc(=O)oc2c1C | active: 5.17 µM | –
COc1ccc(O)c(C(=O)CC(=O)c2ccccc2C)c1 | inconclusive: 20.6 µM [activator, single point] | –
CC(=O)Nc1ccc(OCC(O)CN2CCN(c3ccccc3Cl)CC2)cc1 (configuration not stated) | inconclusive: 32.6 µM [falling, single point] | –

Sorted by SMILES length (low to high): six of the compounds above
SMILES | Potency | activity change, negative = inhibition
O/N=C/c1ccccc1OCc1ccc(Cl)cc1 | inconclusive: 23.1 µM [activator, partial curve, poor fit] | –
CCc1c(C)c2ccc(O)c(CN3CCCC3)c2oc1=O | inactive | –
COc1ccc(O)c(C(=O)CC(=O)c2ccccc2C)c1 | inconclusive: 20.6 µM [activator, single point] | –
N#CCCCC#Cc1ccc2c(c1)COc1c3ccccc3nn1-2 | inconclusive: 0.58 µM [activator, full curve] | –
Cc1nn(CCC(=O)Nc2cc(F)ccc2F)c(=O)c2nn(-c3ccccc3)c(C)c12 | inactive | –
Cc1ccc2c(CN3CCN(S(=O)(=O)c4ccccc4C(F)(F)F)CC3)cc(=O)oc2c1C | active: 5.17 µM | –
